# According to the supplement of paper PMC12067093, “Discovery and optimisation of a covalent ligand for TRIM25 and its application to targeted protein ubiquitination” (Chemical Science, 2025):
# Protein sequences, listed by entry. Tags and fused reporters are not part of them. Lines headed by an entry give the natural chain unless they say otherwise; changes in a name come on top.
# UniProt Q2M2I8: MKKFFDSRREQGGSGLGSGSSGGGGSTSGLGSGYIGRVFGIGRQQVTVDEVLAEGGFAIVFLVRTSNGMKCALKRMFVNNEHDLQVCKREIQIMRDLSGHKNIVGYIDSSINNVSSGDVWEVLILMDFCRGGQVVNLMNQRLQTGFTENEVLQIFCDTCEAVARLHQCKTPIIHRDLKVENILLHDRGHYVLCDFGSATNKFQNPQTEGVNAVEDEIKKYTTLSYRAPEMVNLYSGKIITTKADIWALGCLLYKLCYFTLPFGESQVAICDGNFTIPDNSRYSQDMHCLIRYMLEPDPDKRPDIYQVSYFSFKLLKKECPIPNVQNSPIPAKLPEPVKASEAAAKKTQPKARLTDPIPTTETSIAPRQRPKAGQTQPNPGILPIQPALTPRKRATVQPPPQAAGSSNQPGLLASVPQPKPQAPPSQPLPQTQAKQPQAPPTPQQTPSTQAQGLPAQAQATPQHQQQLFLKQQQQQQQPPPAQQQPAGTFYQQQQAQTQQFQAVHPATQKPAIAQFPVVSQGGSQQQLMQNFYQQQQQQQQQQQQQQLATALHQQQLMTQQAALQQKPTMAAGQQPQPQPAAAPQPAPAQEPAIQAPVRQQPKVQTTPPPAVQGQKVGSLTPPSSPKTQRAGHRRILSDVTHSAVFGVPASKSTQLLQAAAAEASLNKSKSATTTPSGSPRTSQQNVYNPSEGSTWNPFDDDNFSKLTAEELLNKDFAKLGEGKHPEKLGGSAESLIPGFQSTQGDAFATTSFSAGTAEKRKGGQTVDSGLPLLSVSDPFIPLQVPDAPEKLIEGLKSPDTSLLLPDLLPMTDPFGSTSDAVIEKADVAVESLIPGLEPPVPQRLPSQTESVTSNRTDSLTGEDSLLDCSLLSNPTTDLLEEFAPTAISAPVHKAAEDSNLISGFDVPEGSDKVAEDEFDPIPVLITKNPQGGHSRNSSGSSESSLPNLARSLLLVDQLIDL
# UniProt P17040: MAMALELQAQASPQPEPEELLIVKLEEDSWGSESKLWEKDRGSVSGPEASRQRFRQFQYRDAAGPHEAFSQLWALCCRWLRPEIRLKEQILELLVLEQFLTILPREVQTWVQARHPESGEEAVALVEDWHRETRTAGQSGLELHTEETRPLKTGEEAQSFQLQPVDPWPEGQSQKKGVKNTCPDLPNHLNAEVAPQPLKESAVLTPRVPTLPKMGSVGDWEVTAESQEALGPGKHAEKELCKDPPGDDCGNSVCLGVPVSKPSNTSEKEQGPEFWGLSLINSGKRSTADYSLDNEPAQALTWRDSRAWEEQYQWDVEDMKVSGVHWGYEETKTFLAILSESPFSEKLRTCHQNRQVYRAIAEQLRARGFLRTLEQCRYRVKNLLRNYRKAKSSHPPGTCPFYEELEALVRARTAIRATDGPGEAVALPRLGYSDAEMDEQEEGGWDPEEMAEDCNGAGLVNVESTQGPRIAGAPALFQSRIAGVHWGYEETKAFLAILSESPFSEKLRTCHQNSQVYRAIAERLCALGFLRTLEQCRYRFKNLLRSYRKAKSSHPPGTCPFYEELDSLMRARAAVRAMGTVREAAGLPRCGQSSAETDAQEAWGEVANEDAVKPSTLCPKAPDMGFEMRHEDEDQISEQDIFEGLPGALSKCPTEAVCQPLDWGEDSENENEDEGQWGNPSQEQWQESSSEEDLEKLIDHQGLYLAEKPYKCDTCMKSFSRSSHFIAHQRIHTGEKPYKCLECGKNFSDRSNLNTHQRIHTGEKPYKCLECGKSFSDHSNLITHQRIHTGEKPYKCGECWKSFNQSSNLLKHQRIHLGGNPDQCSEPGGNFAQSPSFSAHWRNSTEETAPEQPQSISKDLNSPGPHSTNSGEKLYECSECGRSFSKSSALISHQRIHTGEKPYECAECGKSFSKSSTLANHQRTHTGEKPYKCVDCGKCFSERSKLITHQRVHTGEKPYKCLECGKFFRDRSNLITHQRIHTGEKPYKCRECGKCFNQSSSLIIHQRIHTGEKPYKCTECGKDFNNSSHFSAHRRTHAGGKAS
# UniProt Q15942: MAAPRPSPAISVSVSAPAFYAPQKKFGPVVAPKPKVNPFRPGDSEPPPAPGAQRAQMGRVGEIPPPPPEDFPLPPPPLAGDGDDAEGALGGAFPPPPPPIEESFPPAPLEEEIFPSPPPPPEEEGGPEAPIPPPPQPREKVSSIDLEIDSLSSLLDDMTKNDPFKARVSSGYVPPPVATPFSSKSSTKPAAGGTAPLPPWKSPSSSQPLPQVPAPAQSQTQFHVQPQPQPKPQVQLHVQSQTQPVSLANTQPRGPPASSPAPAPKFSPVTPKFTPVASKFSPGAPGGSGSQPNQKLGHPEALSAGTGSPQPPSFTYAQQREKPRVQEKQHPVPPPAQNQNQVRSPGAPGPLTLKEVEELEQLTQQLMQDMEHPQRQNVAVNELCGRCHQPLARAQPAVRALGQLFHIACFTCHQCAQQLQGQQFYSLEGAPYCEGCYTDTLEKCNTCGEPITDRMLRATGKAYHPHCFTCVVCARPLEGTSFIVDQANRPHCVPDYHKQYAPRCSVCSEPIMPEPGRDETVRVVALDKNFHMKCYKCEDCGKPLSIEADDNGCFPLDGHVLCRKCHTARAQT
# UniProt Q8N2K0: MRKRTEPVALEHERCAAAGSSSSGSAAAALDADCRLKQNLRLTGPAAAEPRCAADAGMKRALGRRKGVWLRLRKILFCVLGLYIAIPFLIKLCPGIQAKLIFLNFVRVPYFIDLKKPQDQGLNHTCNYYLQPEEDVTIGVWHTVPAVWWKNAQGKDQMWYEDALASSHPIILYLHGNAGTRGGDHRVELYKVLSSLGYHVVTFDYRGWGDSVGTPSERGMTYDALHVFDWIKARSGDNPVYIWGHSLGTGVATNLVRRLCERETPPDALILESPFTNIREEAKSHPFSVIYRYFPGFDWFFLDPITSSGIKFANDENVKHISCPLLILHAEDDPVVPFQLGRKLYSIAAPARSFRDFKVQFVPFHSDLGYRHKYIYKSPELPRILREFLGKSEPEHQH
# UniProt Q9H900: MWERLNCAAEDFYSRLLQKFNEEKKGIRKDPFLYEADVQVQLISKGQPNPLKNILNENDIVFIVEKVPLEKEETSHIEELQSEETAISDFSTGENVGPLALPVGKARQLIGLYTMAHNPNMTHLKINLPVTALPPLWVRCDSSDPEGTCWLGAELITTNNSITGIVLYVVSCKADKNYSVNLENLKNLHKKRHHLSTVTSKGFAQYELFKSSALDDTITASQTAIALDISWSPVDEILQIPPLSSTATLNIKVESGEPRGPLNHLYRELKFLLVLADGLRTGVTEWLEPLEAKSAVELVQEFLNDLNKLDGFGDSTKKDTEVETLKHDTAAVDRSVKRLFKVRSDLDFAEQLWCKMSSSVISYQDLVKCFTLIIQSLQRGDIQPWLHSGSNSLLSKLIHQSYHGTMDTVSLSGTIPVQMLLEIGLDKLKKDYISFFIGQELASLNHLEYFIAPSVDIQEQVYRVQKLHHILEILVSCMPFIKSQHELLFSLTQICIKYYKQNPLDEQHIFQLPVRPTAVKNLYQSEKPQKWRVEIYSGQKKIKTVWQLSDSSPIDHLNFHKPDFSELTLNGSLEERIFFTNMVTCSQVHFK
# UniProt Q9P2E3: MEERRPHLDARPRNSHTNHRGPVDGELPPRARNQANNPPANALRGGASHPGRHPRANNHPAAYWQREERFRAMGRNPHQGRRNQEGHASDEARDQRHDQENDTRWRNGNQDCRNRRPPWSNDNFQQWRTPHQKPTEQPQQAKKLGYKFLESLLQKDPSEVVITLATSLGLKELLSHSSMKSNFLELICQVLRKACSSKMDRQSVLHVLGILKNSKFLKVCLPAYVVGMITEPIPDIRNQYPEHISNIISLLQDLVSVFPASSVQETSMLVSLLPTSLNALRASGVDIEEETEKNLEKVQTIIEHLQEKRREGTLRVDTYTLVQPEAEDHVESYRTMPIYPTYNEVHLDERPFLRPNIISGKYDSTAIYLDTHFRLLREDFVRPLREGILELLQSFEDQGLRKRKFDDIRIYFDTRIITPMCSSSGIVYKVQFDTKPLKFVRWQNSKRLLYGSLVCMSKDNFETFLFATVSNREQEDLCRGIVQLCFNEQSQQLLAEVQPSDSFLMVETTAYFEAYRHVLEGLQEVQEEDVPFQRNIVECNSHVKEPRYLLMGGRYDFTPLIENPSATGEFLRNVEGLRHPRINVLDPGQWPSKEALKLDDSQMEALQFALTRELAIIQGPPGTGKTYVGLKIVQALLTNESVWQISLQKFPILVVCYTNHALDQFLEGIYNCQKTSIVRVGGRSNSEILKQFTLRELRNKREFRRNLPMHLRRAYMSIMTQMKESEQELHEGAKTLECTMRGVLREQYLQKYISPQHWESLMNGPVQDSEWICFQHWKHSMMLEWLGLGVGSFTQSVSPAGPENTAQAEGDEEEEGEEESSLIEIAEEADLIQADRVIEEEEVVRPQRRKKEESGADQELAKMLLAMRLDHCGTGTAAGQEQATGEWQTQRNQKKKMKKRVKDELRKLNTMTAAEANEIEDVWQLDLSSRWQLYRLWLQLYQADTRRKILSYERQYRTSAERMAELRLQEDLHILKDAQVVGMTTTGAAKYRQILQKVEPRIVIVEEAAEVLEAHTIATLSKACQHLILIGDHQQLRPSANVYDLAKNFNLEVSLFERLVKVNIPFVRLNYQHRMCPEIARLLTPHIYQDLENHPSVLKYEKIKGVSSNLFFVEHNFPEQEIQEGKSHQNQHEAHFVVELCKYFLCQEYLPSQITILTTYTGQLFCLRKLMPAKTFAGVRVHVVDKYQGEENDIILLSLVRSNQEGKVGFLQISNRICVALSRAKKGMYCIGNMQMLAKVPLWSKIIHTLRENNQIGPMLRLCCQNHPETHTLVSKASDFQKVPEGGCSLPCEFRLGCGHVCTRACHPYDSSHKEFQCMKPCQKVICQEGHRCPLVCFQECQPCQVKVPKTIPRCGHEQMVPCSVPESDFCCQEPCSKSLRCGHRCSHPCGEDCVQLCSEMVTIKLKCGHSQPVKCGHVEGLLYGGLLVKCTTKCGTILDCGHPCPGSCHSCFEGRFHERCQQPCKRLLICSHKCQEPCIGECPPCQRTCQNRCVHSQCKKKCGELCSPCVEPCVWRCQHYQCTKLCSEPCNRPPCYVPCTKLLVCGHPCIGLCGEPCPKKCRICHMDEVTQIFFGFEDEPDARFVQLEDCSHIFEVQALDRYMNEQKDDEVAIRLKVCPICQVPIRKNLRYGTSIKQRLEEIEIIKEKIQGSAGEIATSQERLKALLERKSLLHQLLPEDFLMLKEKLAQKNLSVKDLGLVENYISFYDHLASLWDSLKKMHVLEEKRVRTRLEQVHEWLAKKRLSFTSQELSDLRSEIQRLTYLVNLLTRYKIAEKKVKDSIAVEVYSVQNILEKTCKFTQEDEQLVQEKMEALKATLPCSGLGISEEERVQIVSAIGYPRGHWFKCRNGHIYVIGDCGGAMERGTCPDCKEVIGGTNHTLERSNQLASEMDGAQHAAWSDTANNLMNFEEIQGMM
# UniProt Q6UXT9: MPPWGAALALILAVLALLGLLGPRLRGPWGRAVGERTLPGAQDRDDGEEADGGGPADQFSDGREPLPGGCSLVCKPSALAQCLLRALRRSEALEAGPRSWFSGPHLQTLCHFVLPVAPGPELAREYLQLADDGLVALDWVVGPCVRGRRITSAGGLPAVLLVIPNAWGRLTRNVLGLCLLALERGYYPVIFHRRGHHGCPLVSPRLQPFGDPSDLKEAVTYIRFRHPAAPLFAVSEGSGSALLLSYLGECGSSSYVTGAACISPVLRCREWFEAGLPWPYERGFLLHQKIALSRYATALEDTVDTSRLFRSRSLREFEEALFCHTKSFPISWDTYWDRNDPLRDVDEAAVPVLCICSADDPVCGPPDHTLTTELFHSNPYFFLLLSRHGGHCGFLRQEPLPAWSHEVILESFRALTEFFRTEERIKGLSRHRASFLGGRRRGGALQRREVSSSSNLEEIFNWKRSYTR
# UniProt Q9NRG9: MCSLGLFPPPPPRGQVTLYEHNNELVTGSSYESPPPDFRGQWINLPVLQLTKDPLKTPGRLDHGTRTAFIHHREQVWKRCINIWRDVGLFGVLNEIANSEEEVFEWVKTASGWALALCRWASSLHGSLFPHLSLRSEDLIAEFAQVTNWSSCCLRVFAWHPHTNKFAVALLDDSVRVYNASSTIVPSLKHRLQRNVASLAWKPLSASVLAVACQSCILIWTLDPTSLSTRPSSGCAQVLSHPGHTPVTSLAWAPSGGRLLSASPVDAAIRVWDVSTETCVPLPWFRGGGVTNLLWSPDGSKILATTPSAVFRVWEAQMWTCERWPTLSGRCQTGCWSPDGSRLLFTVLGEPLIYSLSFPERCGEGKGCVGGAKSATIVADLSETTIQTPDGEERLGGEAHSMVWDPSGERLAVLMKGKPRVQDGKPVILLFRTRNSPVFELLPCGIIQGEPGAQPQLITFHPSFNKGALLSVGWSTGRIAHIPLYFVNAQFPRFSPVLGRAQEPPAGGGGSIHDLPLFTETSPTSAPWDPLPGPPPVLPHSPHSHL
# Some of the results follow.
# Legend:
# [1] = compound: CC1Cc2ccccc2N1C(=O)C1CCCN(C1)C(=O)CCl (mixture of isomers) [TRIM25 ligand 11 (diastereomer mixture)]; assay: probe-labelled cysteine peptide fold change vs DMSO (competition) (log2 fold change); higher = less target engagement (more negative = stronger competition); conditions: THP-1, incubation time: 4 h
# compound 10 = compound: Cc1cc(ccc1-c1ccccc1)C(=O)N1CCCN(CC1)C(=O)CCl [compound 10]; assay: as above; conditions: THP-1, incubation time: 4 h
Target,probe-labelled cysteine peptide fold change ([1]; 10 µM),probe-labelled cysteine peptide fold change ([1]; 50 µM),probe-labelled cysteine peptide fold change (compound 10; 10 µM),probe-labelled cysteine peptide fold change (compound 10; 50 µM)
AAK1_Q2M2I8_319_KECPIPNVQNSPIPAK (UniProt Q2M2I8),-0.0908,-0.082,–,–
ACAA1_P09110_381_VNPLGGAVALGHPLGCTGAR (UniProt P09110),0.0215,0.146,–,–
ZSCAN20_P17040_399_SSHPPGTCPFYEELEALVR (UniProt P17040),–,–,-0.0355,-0.403
ZYX_Q15942_384_QNVAVNELCGR (UniProt Q15942),–,–,-0.0364,-0.279
AARS_P49588_184_DNFWEMGDTGPCGPCSEIHYDR (UniProt P49588),-0.0236,-0.152,–,–
ACBD3_Q9H3P7_169_CCHLFSTYVASHK (UniProt Q9H3P7),0.129,0.07,–,–
ABHD12_Q8N2K0_52_CAADAGMK (UniProt Q8N2K0),-0.081,-0.2,–,–
ZNHIT1_O43257_140_CLGTHQETR (UniProt O43257),–,–,-0.0501,-0.199
ZYX_Q15942_540+553+562_CEDCGKPLSIEADDNGCFPLDGHVLCR (UniProt Q15942),–,–,-0.0975,-0.457
ABHD11_Q8NFV4_135_NHGDSPHSPDMSYEIMSQDLQDLLPQLGLVPCVVVGHSMGGK (UniProt Q8NFV4),-0.112,-0.178,–,–
ZYX_Q15942_504+507_CSVCSEPIMPEPGRDETVR (UniProt Q15942),–,–,0.0548,-0.176
ZNF784_Q8NCA9_301_THFHGPGPGLGDSGGQLGSSAAEGSGSGCGVGDPAEEGRGETAK (UniProt Q8NCA9),–,–,-0.246,-0.494
AARS2_Q5JTZ9_300_HSTYDTDLFSPLLNAIQQGCR (UniProt Q5JTZ9),0.22,0.0945,–,–
ACADM_P11310_159_MTEEPLMCAYCVTEPGAGSDVAGIK (UniProt P11310),-0.135,-0.324,–,–
ZNRD1_Q9P1U0_78_TSVVFHQLGTAMPMSVEEGPECQGPVVDRR (UniProt Q9P1U0),–,–,-0.0277,-0.554
ZW10_O43264_124_QLQEFSTAIEEYNCALTEK (UniProt O43264),–,–,-0.263,0.0036
ACAD9_Q9H845_507_TVDLGLTGNHGVVHPSLADSANKFEENTYCFGR (UniProt Q9H845),0.145,-0.0473,–,–
ACADVL_P49748_603_MLCDTWCIEAAAR (UniProt P49748),0.0675,-0.13,–,–
ABHD16A_O95870_416_QHLNLNNAEQLCR (UniProt O95870),-0.104,0.141,–,–
ZYX_Q15942_467_AYHPHCFTCVVCAR (UniProt Q15942),–,–,0.229,0.194
ZYG11B_Q9C0D3_386_NHPMNLPVQLAASACVFNLTK (UniProt Q9C0D3),–,–,-0.0351,-0.172

Target,probe-labelled cysteine peptide fold change ([1]; 10 µM),probe-labelled cysteine peptide fold change ([1]; 50 µM),probe-labelled cysteine peptide fold change (compound 10; 10 µM),probe-labelled cysteine peptide fold change (compound 10; 50 µM)
ACACA_Q13085_1769_RVSALNSVHCEHVEDEGESR (UniProt Q13085),0.292,0.415,–,–
ACACA_Q13085_1396_NFDLTAIPCANHK (UniProt Q13085),0.0588,-0.0964,–,–
ZWILCH_Q9H900_354_SDLDFAEQLWCK (UniProt Q9H900),–,–,0.0331,0.201
ZNFX1_Q9P2E3_1288_VPEGGCSLPCEFR (UniProt Q9P2E3),–,–,0.108,-0.242
ACAD9_Q9H845_613_AYICAHPLDR (UniProt Q9H845),0.0592,-0.00872,–,–
ACAT2_Q9BWD1_65_RATVAPEDVSEVIFGHVLAAGCGQNPVR (UniProt Q9BWD1),0.0249,-0.000715,–,–
ZYX_Q15942_553+562_CEDCGKPLSIEADDNGCFPLDGHVLCR (UniProt Q15942),–,–,-0.0534,-0.641
ZRANB2_O95218_20_CGNVNFAR (UniProt O95218),–,–,-0.0495,-0.314
ABCB1_P08183_1074_KGQTLALVGSSGCGK (UniProt P08183),-0.0574,-0.0554,–,–
ZYX_Q15942_553+562_PLSIEADDNGCFPLDGHVLCR (UniProt Q15942),–,–,0.00642,-0.255
ACAT2_Q9BWD1_158_IGEMPLTDSILCDGLTDAFHNCHMGITAENVAK (UniProt Q9BWD1),-0.0888,-0.138,–,–
ZYX_Q15942_537_CEDCGKPLSIEADDNGCFPLDGHVLCR (UniProt Q15942),–,–,0.195,0.192
ZZZ3_Q8IYH5_104_QAIENCER (UniProt Q8IYH5),–,–,-0.328,-0.158
ABCF2_Q9UG63_388_TLSFYFPPCGK (UniProt Q9UG63),0.02,0.0914,–,–
ABHD17B_Q5VST6_68_DAIECFMTR (UniProt Q5VST6),-0.0364,0.166,–,–
ABHD15_Q6UXT9_323_EFEEALFCHTK (UniProt Q6UXT9),-0.057,0.0683,–,–
ACAD10_Q6JQN1_197_LCLEQLGLQPSESIFLDDLGTNLK (UniProt Q6JQN1),0.0777,0.0233,–,–
AAK1_Q2M2I8_159_LQTGFTENEVLQIFCDTCEAVAR (UniProt Q2M2I8),0.25,0.136,–,–
AAAS_Q9NRG9_335_CQTGCWSPDGSR (UniProt Q9NRG9),0.605,-0.129,–,–
ACAP2_Q15057_329_FCFEVVSPTK (UniProt Q15057),0.185,0.153,–,–
